Measured data: PubChem BioAssay AID1259405 (NCATS, 2018)

Assay: 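Silenced genes that increase secreted GFP made by CHO cells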 (primary screen)
Cells: Chinese hamster CHO-K1 ovary cells with stable secreted eGFP expression
Reagent: single siRNA against mouse genes, 0.8 pmol siRNA per well (2 µl of 400 nM stock)
Time to read-out: 3 days
Detection: 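Percent of the per-plate non-targeting control median for intracellular GFP per well by laser scanning cytometry and for cell viability by ATP luminescence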
Scale: GFP, % of control: higher = more GFP per well, higher productivity; viability (ATP), % of control: higher = more viable cells (more ATP)
Hit rule: 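a knock-down is called active if GFP reaches 120% or more of non-targeting control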
Shown is one part, drawn at random, of about 50,000 deposited reagents. Of all reagents, about 4,000 (8%) got an active call. 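Mouse siRNA library applied to hamster cells; one well for each siRNA.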 Entries without a mark were called inactive. The numbers tell different reagents against one gene apart.

{"gene": "Tbc1d7", "siRNA no.": 1, "GFP, % of control": 47.4, "viability (ATP), % of control": 59.2}
{"gene": "Tbc1d7", "siRNA no.": 2, "GFP, % of control": 117, "viability (ATP), % of control": 118}
{"gene": "Tbc1d7", "siRNA no.": 3, "GFP, % of control": "154 (active)", "viability (ATP), % of control": 104}
{"gene": "Hoxd10", "siRNA no.": 1, "GFP, % of control": 99.8, "viability (ATP), % of control": 97.9}
{"gene": "Hoxd10", "siRNA no.": 2, "GFP, % of control": 71.4, "viability (ATP), % of control": 81.2}
{"gene": "Hoxd10", "siRNA no.": 3, "GFP, % of control": 45.2, "viability (ATP), % of control": 48.7}
{"gene": "Dad1", "siRNA no.": 1, "GFP, % of control": 95.5, "viability (ATP), % of control": 84.7}
{"gene": "Dad1", "siRNA no.": 2, "GFP, % of control": 76.4, "viability (ATP), % of control": 88.5}
{"gene": "Dad1", "siRNA no.": 3, "GFP, % of control": 40.7, "viability (ATP), % of control": 26.9}
{"gene": "Rusc2", "siRNA no.": 1, "GFP, % of control": 45.8, "viability (ATP), % of control": 40}
{"gene": "Rusc2", "siRNA no.": 2, "GFP, % of control": "146 (active)", "viability (ATP), % of control": 53.2}
{"gene": "Rusc2", "siRNA no.": 3, "GFP, % of control": 74, "viability (ATP), % of control": 78.6}
{"gene": "Leng1", "siRNA no.": 1, "GFP, % of control": 73, "viability (ATP), % of control": 67}
{"gene": "Leng1", "siRNA no.": 2, "GFP, % of control": 55.1, "viability (ATP), % of control": 32.3}
{"gene": "Leng1", "siRNA no.": 3, "GFP, % of control": 56.9, "viability (ATP), % of control": 89.6}
{"gene": "Fam72a", "siRNA no.": 1, "GFP, % of control": 59, "viability (ATP), % of control": 68.3}
{"gene": "Fam72a", "siRNA no.": 2, "GFP, % of control": 58.3, "viability (ATP), % of control": 78.5}
{"gene": "Fam72a", "siRNA no.": 3, "GFP, % of control": 72, "viability (ATP), % of control": 76.3}
{"gene": "Dgka", "siRNA no.": 1, "GFP, % of control": 74.4, "viability (ATP), % of control": 48.8}
{"gene": "Usp1", "siRNA no.": 1, "GFP, % of control": 81.3, "viability (ATP), % of control": 99}
{"gene": "Usp1", "siRNA no.": 2, "GFP, % of control": 52.8, "viability (ATP), % of control": 68.2}
{"gene": "Usp1", "siRNA no.": 3, "GFP, % of control": 73.8, "viability (ATP), % of control": 79.9}
{"gene": "Or4c116", "siRNA no.": 1, "GFP, % of control": 92.4, "viability (ATP), % of control": 90.8}
{"gene": "Or4c116", "siRNA no.": 2, "GFP, % of control": 60.5, "viability (ATP), % of control": 57.7}
{"gene": "Or4c116", "siRNA no.": 3, "GFP, % of control": 61.1, "viability (ATP), % of control": 89.6}
{"gene": "Mbd2", "siRNA no.": 1, "GFP, % of control": 52.7, "viability (ATP), % of control": 83.2}
{"gene": "Mbd2", "siRNA no.": 2, "GFP, % of control": 66.5, "viability (ATP), % of control": 58.7}
{"gene": "Mbd2", "siRNA no.": 3, "GFP, % of control": 51, "viability (ATP), % of control": 72.6}
